This data set in a line: general procedure: Boc solid-phase peptide synthesis. As to conditions: oxidative folding step.

[ ]: non-standard residue; d: D form. The star is where a group is joined. X1 = N=C(N)NCCC[C@H](N)C(=O)N[C@@H](Cc1c[nH]cn1)C(=O)N1CCC[C@H]1C(=O)N[C@@H](CS*)C(=O)O; pGlu = O=C1CC[C@@H](C(=O)O)N1

As to “[pGlu]NC(X1)PRG-NH2 (SMILES N=C(N)NCCC[C@H](NC(=O)[C@@H]1CCCN1C(=O)[C@H](CSSC[C@H](NC(=O)[C@@H]1CCCN1C(=O)[C@H](Cc1c[nH]cn1)NC(=O)[C@@H](N)CCCNC(=N)N)C(=O)O)NC(=O)[C@H](CC(N)=O)NC(=O)[C@@H]1CCC(=O)N1)C(=O)NCC(N)=O)”, the oxidative folding yield result is given as “about 80%”.

Values taken from patent publication US6589937B1 (Kabushiki Kaisha Yakult Honsha, priority 1996, dated 2003).
